Results on 39 molecules are retold here after PubChem BioAssay AID445 (National Center for Advancing Translational Sciences (NCATS), 2006).

This assay can be described thus: IkB Signaling. As to conditions: ABC-DLBCL IkBa-CBG/CBR dual luciferase ratio (green luciferase fused to IkBa over red control in OCI-Ly3 lymphoma cells), 4 h. An outline of the steps:
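Curves were fitted separately to fusion (green), unfused (red) and ratio luminescence, then classed by r2, magnitude and activity. Cells: OCI-Ly3, 4 h compound plus doxycycline at 37C; 10 uM MG-132 defined full response.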

Setting [1] is: measured here: control luc red channel unless noted.
Setting [2] is: measured here: IkB-luc green channel.
[3] abbreviates: measured here: control luc red channel.

The structures appear in SMILES notation. Some of the results follow. These are further read-outs of the screen, such as a control signal, another cell line or another target. No call is given for them. Most of these compounds were active or inconclusive in the main read-out, so they are no random draw. Potencies come from curve fits of mixed quality, noted in brackets.

What is called AC50 is the midpoint of the concentration-response curve, whichever way the signal moves. On to `COc1ccccc1NC(=O)CSC1=Nc2ccccc2C2=NC(CCC(=O)NCc3cccs3)C(=O)N12` (stereo unspecified), for which, under setting [1], the AC50 was 39.8 µM [falling, single point].
Same read-out and setting: next, `O=C(Nc1ccc(N2CCN(C(=O)c3ccco3)CC2)c(Cl)c1)c1c(F)c(F)c(F)c(F)c1F`: 10 µM [falling, partial curve]; `Cn1c(=O)[nH]c2cc(-c3noc(-c4cccc(Cl)c4)n3)ccc21`: 0.631 µM [rising, full curve, poor fit].
On the same count and under the same terms, next, `CCCNC(=O)Cn1nc(-c2ccc(F)cc2)c2cnc3ccc(F)cc3c21`: 0.0794 µM [rising, full curve].
As to `COc1ccc(NC(=O)c2ccc(CN3CCN(c4ccccc4)CC3)cc2)cc1OC`, the concentration at half-maximal activity (AC50) under setting [1] is 12.6 µM [falling, partial curve].
On the same count and under the same terms, next, `CCC(C)NC(=O)c1cccc(NC(=O)c2nsc3ccccc23)c1` (stereo unspecified): 6.31 µM [rising, single point]; `COc1cccc(Cn2c(=O)cnc3cnc(Nc4cccc(OC)c4)nc32)c1`: 3.16 µM [falling, partial curve] [measured here: IkB-luc green channel].
In the case of `Clc1ccc(C(c2ccc(Cl)cc2)n2cc[n+](C[C@@H](OCc3ccc(Cl)cc3Cl)c3ccc(Cl)cc3Cl)c2)cc1`, the half-maximal activity concentration (AC50) by setting is: under setting [2], 39.8 µM [falling, single point]; under setting [3], 31.6 µM [falling, partial curve].
As for `CCC(=O)Nc1ccc(NC(=O)c2ccccc2Cl)nc1`, the concentration at half-maximal activity (AC50) under setting [1] was 7.94 µM [falling, partial curve].
Still for that read-out and setting: next, `CCc1ccc(NC(=O)CSc2nc3c(sc4ccccc43)c(=O)n2CCCOC(C)C)cc1`: 3.16 µM [rising, full curve, poor fit]; `COc1ccc(-c2nc3ccc(NS(=O)(=O)c4ccc(Cl)cc4)cc3o2)cc1`: 15.8 µM [falling, partial curve]; `Cc1ccc(CNC(=O)c2ccc(CSCc3ccccc3C)o2)cc1`: 20 µM [falling, single point].
Consider `COc1ccc(Cc2nnc(-c3cccc(C)c3)o2)cc1OC`, for which the AC50 under setting [1] was 3.16 µM [rising, partial curve].
Still for that read-out and setting: next, `CCCCOC(=O)n1c(SCC(=O)N(CC)CC)nc2ccccc21`: 10 µM [falling, partial curve].
Still for that read-out and setting: for `O=C(CSc1cn(CC(=O)N2CCOCC2)c2ccccc12)Nc1ccccc1F` the value was 20 µM [falling, single point]; for `Cc1cc2ccccc2n1CCNC(=O)c1cccc(Br)c1`, 31.6 µM [falling, partial curve].
Still for that read-out and setting: next, `Cc1ccc(S(=O)(=O)Nc2ccc3c(c2)CCCN3C(=O)c2cccs2)cc1`: 39.8 µM [falling, single point].
As to `COc1ccc(OC)c(CCNC(=O)CCCn2c(=O)c3cccn3c3ccccc32)c1`, the AC50 under setting [1] is 6.31 µM [falling, single point].
Same read-out and setting: next, `COc1ccc2oc(=O)cc(CN3CCN(Cc4ccccc4)CC3)c2c1`: 20 µM [falling, single point].
Still for that read-out and setting: next, `Cc1cccc(N2CCN(C(=O)c3cc4c(C)nc5ccccc5c4o3)CC2)c1C`: 12.6 µM [falling, partial curve].
In the case of `CCN(C(=O)c1cc2c(s1)-c1c(C)cccc1OC2)c1ccccc1F`, the AC50 under setting [1] was 0.631 µM [falling, full curve].
For `COc1ccc(CC(=O)N2CCc3cc(OC)c(OC)cc3C2COc2ccc(OC)cc2)cc1` (stereo unspecified), the concentration at half-maximal activity (AC50) under setting [1] was 39.8 µM [falling, single point].
The same measure, in the same setting: for `CCC(=O)N1CCc2cc(Br)cc(S(=O)(=O)Nc3ccc(C)cc3C)c21` the value was 6.31 µM [rising, single point].
On the same count and under the same terms, for `Cc1ccc2c(c1)-c1cc(C)nn1C(c1sccc1C)N2` (stereo unspecified) the value was 39.8 µM [falling, single point]; for `COc1cccc(NC(=O)c2ccccc2-c2nc(-c3cccc(C)c3)no2)c1`, 6.31 µM [falling, partial curve]; for `Cc1ccc(C)c(NC(=O)c2cnn(-c3cccc(F)c3)c2C2CCN(C(=O)OC(C)(C)C)CC2)c1`, 12.6 µM [falling, partial curve].
With `O=C1CC(c2nc3ccccc3[nH]2)CN1c1cccc(Cl)c1` (stereo unspecified), under setting [1], the AC50 is 15.8 µM [falling, partial curve].
Take `Cc1sc2nc3ccc(N4CCCCC4)nn3c(=O)c2c1C`: under setting [1], the half-maximal activity concentration (AC50) was 25.1 µM [falling, partial curve].
For the molecule `CCCCNc1nc2c(c(=O)n(Cc3ccc(Cl)cc3)c(=O)n2C)n1C`, the AC50 under setting [1] is 15.8 µM [falling, partial curve].
Still for that read-out and setting: next, `O=C(Nc1cc(=O)c2ccccc2o1)N1CCCCC1`: 39.8 µM [falling, single point].
The same measure, in the same setting: next, `COc1cccc(CSc2nc3cc(C(=O)NC4CCCC4)ccc3c(=O)n2Cc2ccccc2)c1`: 0.2 µM [falling, full curve].
Still for that read-out and setting: for `COc1ccc(-n2cc(C(=O)NCc3ccccc3)c3ccccc3c2=O)cc1` the value was 12.6 µM [falling, partial curve]; for `CC1Cc2ccccc2N1S(=O)(=O)c1cccc(C(=O)c2nccn2C)c1` (stereo unspecified), 20 µM [falling, partial curve].
For `Cc1cc(Cl)ccc1NC(=O)c1cc(S(=O)(=O)N2CCOCC2)cn1C`, the concentration at half-maximal activity (AC50) under setting [1] was 12.6 µM [rising, partial curve, poor fit].
Still for that read-out and setting: next, `O=C(c1ccc2c(c1)N(Cc1ccc(Cl)cc1)C(=O)c1ccccc1S2=O)N1CCOCC1` (stereo unspecified): 15.8 µM [falling, partial curve].
As for `Cc1ccc(CNC(=O)CCS(=O)(=O)c2cc(Br)cc3c2N(C(=O)C2CC2)CC3)o1`, the AC50 is 39.8 µM [rising, single point] under setting [2] and 15.8 µM [falling, partial curve] under setting [3].
Turning to `Cc1cc(C)c2c(CC(=O)N3CCN(c4cccc(Cl)c4)CC3)coc2c1`, the AC50 under setting [1] was 31.6 µM [falling, single point].
In the case of `COc1cccc(N2CCN(C(=O)c3ccc(Cn4c(=O)[nH]c5cc(OC)c(OC)cc5c4=O)cc3)CC2)c1`, the AC50 under setting [1] was 10 µM [falling, partial curve].
The same measure, in the same setting: for `O=C(c1ccc(N2CN(C(=O)c3ccco3)c3nc4ccccc4nc32)cc1)N1CCOCC1` the value was 12.6 µM [falling, partial curve].
